These are yes or no findings as the source states them, for the method shown. In cells and extracts the contact can be indirect. These calls come from enrichment with a bait or labelling near it, and not all partners need be listed. No binding means not detected with the bait. Tags and fused reporters may be left off the sequences shown. Blank lines part the entries; values can stand above or below the binder they belong to.
Target: T1, C-terminally tagged Neurospora crassa eIF3l (Neurospora crassa) (UniProt Q7SB62)
T1 sequence: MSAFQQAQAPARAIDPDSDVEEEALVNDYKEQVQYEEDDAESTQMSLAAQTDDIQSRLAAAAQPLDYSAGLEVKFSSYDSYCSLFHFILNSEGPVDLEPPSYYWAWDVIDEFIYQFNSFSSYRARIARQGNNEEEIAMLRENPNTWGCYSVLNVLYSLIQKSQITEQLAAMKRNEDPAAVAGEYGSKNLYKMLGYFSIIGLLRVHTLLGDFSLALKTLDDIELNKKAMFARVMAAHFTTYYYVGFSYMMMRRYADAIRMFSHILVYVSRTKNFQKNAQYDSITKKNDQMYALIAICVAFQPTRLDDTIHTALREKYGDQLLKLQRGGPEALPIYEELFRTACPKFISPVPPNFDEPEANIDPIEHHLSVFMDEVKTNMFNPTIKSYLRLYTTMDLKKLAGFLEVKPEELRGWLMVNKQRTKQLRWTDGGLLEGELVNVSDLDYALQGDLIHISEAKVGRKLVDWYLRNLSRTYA
Assay: affinity purification with mass spectrometry; anti-FLAG affinity beads in N. crassa lysate (TBS, 0.5% Triton X-100, 10% glycerol), 4-20 h at 4°C, FLAG peptide elution; Coomassie gel, subunits identified by tandem mass spectrometry; C-terminally tagged eIF3l as bait

binding: binds
B1: Neurospora crassa eIF3k (protein, UniProt Q7S2R9 1-237)
chain: MNGEDPQERPDFIRAIINGLERYNPEAAGTLEAYLTQQCEEKFCDCNANRALLKLYQLNPDRIKDEVITNILVKAMTQFPSPQFDLALHLLSPSQSNPGPNSSSELTEAVSKLRALNAQLEGAEYARFWATLDSDDLYADLTTDIAGFEDMIRVRIAQLVGQSYREIQFPVLESWLGLNNSEATTQFITETCGWKVEGDVVQIPKNADNEARKAEIREDVNVDMFARVIKRSWEESA

binding: no binding
B2: Neurospora crassa eIF3j (protein, UniProt Q7S931 1-274)
chain: MSGKKWDEEEEESSAPNSPVLAPGRRRFDDEEGNESDVLDSWDAAEDSEVEREKAKKAAEAKAKAEAEAAANKKSKAQRIAERQAERARQLAEDSDAEEETEAERRERLRREQKESDLKHAEDLFAGIGISNDRKVVSKGTIVQIDPKDPNNTIDISTLALFNPTTKTQFETLRTTLGPMIGKLSPKPHYTLFLQEFSKQLAKDLKSDEIKKIASTLTALSNEKLKEEKAAEKGGKKSKAAKTKTSLAGVGRGGAIAEAHDTYDDDAFGDDDFM

Reference: PMC3826745
